Results are given in words; binding and its absence hold for the method and conditions named. Binding seen in cells or lysates may run through a third protein. Where a sequence is shown, tags or fusion partners need not be part of it.
B1: Myc–SH3BP2 (protein, UniProt P78314 1-561)
chain: MAAEEMHWPVPMKAIGAQNLLTMPGGVAKAGYLHKKGGTQLQLLKWPLRFVIIHKRCVYYFKSSTSASPQGAFSLSGYNRVMRAAEETTSNNVFPFKIIHISKKHRTWFFSASSEEERKSWMALLRREIGHFHEKKDLPLDTSDSSSDTDSFYGAVERPVDISLSPYPTDNEDYEHDDEDDSYLEPDSPEPGRLEDALMHPPAYPPPPVPTPRKPAFSDMPRAHSFTSKGPGPLLPPPPPKHGLPDVGLAAEDSKRDPLCPRRAEPCPRVPATPRRMSDPPLSTMPTAPGLRKPPCFRESASPSPEPWTPGHGACSTSSAAIMATATSRNCDKLKSFHLSPRGPPTSEPPPVPANKPKFLKIAEEDPPREAAMPGLFVPPVAPRPPALKLPVPEAMARPAVLPRPEKPQLPHLQRSPPDGQSFRSFSFEKPRQPSQADTGGDDSDEDYEKVPLPNSVFVNTTESCEVERLFKATSPRGEPQDGLYCIRNSSTKSGKVLVVWDETSNKVRNYRIFEKDSKFYLEGEVLFVSVGSMVEHYHTHVLPSHQSLLLRHPYGYTGPR

By UniProt entry, the sequences of proteins in these tests, tags left out. Where a name states a change or a piece, a line headed by the entry shows the natural chain unless it says otherwise. Residues count along the entry.
UniProt O00160: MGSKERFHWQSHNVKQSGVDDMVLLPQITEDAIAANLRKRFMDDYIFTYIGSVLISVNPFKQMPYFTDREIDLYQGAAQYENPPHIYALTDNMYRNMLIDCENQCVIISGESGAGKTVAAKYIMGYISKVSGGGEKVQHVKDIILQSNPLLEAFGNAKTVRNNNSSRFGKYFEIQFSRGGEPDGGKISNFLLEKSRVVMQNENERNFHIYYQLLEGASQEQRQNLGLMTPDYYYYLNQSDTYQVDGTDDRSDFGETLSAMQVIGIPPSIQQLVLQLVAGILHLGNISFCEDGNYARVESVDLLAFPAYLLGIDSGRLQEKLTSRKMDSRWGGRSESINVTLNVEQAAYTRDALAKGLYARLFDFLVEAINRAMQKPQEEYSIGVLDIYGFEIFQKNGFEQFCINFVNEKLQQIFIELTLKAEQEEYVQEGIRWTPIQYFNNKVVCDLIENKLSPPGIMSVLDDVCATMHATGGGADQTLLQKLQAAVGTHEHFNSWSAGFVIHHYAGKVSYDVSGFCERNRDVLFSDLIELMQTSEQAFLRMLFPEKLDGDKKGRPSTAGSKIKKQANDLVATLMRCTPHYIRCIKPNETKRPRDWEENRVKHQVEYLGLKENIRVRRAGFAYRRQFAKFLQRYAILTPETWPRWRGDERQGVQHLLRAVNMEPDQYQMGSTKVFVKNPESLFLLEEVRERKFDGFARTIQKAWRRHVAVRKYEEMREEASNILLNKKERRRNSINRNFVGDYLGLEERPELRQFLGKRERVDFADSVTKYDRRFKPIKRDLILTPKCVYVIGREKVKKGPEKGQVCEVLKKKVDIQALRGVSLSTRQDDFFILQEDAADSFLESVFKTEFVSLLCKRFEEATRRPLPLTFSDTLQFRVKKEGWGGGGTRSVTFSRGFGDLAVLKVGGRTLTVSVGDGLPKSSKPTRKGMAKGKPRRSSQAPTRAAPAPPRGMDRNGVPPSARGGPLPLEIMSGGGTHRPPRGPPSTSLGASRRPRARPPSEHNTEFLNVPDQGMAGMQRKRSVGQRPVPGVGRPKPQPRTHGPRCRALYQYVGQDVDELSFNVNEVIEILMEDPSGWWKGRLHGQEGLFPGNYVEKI
UniProt Q9ULH1, residues 589-1129: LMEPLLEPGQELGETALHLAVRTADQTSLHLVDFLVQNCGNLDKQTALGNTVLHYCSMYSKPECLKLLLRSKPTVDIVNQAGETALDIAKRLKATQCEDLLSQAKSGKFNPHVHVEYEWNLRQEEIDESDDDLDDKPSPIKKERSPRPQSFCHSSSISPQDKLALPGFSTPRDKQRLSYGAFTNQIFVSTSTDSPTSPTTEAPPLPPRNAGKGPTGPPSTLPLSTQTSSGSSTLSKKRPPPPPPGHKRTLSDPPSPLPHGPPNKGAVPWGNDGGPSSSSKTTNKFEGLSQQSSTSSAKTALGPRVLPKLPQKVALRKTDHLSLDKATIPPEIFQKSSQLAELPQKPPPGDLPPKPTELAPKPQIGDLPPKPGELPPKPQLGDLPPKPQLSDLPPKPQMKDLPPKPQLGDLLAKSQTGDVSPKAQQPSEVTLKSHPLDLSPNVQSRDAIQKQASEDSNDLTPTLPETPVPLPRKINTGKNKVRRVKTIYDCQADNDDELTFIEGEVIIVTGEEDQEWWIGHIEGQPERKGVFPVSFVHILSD
UniProt Q96B97: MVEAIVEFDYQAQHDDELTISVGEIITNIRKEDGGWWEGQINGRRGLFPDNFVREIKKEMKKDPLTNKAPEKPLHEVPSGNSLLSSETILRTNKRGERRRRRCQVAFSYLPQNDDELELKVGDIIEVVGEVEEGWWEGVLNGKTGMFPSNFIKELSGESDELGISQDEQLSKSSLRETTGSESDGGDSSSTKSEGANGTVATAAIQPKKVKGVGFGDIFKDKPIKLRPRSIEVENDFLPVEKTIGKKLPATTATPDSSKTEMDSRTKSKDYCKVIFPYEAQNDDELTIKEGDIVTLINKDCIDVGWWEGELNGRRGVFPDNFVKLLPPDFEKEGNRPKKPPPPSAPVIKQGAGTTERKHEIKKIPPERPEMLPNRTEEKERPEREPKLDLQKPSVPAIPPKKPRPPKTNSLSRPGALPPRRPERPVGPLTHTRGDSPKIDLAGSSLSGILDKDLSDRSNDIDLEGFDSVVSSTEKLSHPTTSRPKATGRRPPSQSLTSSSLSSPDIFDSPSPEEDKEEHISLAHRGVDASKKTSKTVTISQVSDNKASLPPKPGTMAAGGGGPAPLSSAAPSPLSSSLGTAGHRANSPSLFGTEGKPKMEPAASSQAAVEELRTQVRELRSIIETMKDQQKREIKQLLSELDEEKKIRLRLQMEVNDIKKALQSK

Each molecule was assayed against GFP–MYO1FΔSH3 (human) (UniProt O00160) (assay: co-IP; anti-GFP antibodies and protein A Sepharose from RPE cells stably expressing GFP–MYO1F or GFP–MYO1FΔSH3 and transiently transfected with Myc-tagged partners; blot with anti-Myc; lysis in 50 mM Tris-HCl pH 7.4, 100 mM NaCl, 1% NP-40, 5 mM MgCl2, 5 mM ATP; also after siRNA knockdown of SH3KBP1 or ASAP1).

Row | binding | Molecule
1 | no binding | Myc–ASAP1-3′ (amino acids 589–1129) (from UniProt Q9ULH1 589-1129) (domain or fragment)
2 | no binding | Myc–SH3KBP1 (from UniProt Q96B97 1-665)
3 | no binding | B1
